The assay relates to HEK293A TEAD-LUC reporter. Nature of the assay: TEAD-luciferase reporter activity (YAP activation), robust Z score vs plate; higher = stronger YAP/TEAD activation. The note with it: 24 h.

Structures are written as SMILES. Structures can show the parent of a compound that is named as a salt. The list shows a part of the results. Repeats in this data set agree poorly, so a single value says little.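 The human kidney-derived cells carry a stably integrated construct of eight TEAD-binding elements driving luciferase, read by luminescence in a drug-repurposing library screen. A compound counts as a hit when its signal is more than five robust Z scores above the plate mean.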

Regarding `CCOC(=O)/N=C(\N)c1ccc(OCc2cccc(COc3ccc(C(C)(C)c4ccc(O)cc4)cc3)c2)cc1`, the TEAD-luciferase reporter activity was inactive: -1 (compound concentration: 200 nM), inactive: -1.8 (compound concentration: 2 uM) and inactive: 0.104 (compound concentration: 10 uM).

Turning to `Cc1ccc(CN2CCCCC23Cc2ccccc2CNC3=O)cc1C` (stereo not drawn), the TEAD-luciferase reporter activity (compound concentration: 200 nM) is inactive: 0.541 and the TEAD-luciferase reporter activity (compound concentration: 10 uM) is active: 7.93.

Turning to `CCCCOCCOCCOCc1cc2c(cc1CCC)OCO2`, the TEAD-luciferase reporter activity (compound concentration: 2 uM) is inactive: -0.733.

For the molecule `CCCCOCCOCCOCc1cc2c(cc1CCC)OCO2` [Piperonylbutoxide], the TEAD-luciferase reporter activity runs as follows: (compound concentration: 200 nM) inactive: -1.18; (compound concentration: 10 uM) inactive: 0.705.

For the molecule `COc1cc(CCc2cc(NC(=O)c3ccc(N4C[C@@H](C)N[C@@H](C)C4)cc3)n[nH]2)cc(OC)c1`, the TEAD-luciferase reporter activity (compound concentration: 200 nM) was inactive: -1.74, the TEAD-luciferase reporter activity (compound concentration: 2 uM) was inactive: 1.92 and the TEAD-luciferase reporter activity (compound concentration: 10 uM) is inactive: -0.0385.

Consider `NCCCC[C@H](OP(=O)(O)CCCCc1ccccc1)C(=O)N1CCC[C@H]1C(=O)O` [Ceronapril], for which the TEAD-luciferase reporter activity by setting is: (compound concentration: 200 nM) inactive: 0.864; (compound concentration: 2 uM) inactive: -0.107; (compound concentration: 10 uM) inactive: -0.294.

In the case of `O=C(Cc1ccc(F)cc1)N1CCC(C(=O)N2CCC(N3Cc4ccccc4C3=O)CC2)CC1`, the TEAD-luciferase reporter activity is, setting by setting: (compound concentration: 200 nM) inactive: 0.949; (compound concentration: 10 uM) inactive: 0.41.

On to `CN1C[C@H]2CCN(c3ccc(-c4ccc(-n5ncccc5=O)cc4)cc3)[C@H]2C1`, for which the TEAD-luciferase reporter activity (compound concentration: 200 nM) is inactive: -1.41, the TEAD-luciferase reporter activity (compound concentration: 2 uM) was inactive: 0.398 and the TEAD-luciferase reporter activity (compound concentration: 10 uM) is inactive: 1.43.

As for `CCOC(=O)c1ccccc1Cc1ccc(C)c(Nc2cc(S(=O)(=O)O)c(N)c3c2C(=O)c2ccccc2C3=O)c1`, the TEAD-luciferase reporter activity is inactive: -1.23 (compound concentration: 200 nM), inactive: -0.547 (compound concentration: 2 uM) and inactive: 0.183 (compound concentration: 10 uM).

As to `COc1ccccc1N1CCN(S(=O)(=O)c2ccc(C)cc2)CC1`, the TEAD-luciferase reporter activity (compound concentration: 200 nM) is inactive: -0.317, the TEAD-luciferase reporter activity (compound concentration: 2 uM) was inactive: 0.681 and the TEAD-luciferase reporter activity (compound concentration: 10 uM) was inactive: 1.23.

As for `O=C(O)c1cc(F)c2nc(N3[C@@H]4CC[C@H]3C[C@@H](OCc3c(-c5ccccc5OC(F)(F)F)noc3C3CC3)C4)sc2c1`, the TEAD-luciferase reporter activity was inactive: -0.415 (compound concentration: 200 nM), inactive: -1.08 (compound concentration: 2 uM) and inactive: 3.05 (compound concentration: 10 uM).

On to `CCCCCCCCCCCCCCCC(=O)NCCO` [N-palmitoylethanolamide], for which, for the setting “compound concentration: 2 uM”, the TEAD-luciferase reporter activity is inactive: 0.427.

With `CCCCCCCCCCCCCCCC(=O)NCCO` [N-palmitoylethanolamide, Stief], the TEAD-luciferase reporter activity was inactive: 2.7 (compound concentration: 200 nM) and inactive: 2.92 (compound concentration: 10 uM).

`CCCCc1nn(-c2cc(NC(=O)CC)ccc2C(F)(F)F)c(=O)n1Cc1ccc(-c2ccccc2S(=O)(=O)NC(=O)OC(C)(C)C)cc1`: the TEAD-luciferase reporter activity runs as follows: (compound concentration: 200 nM) inactive: -0.802; (compound concentration: 2 uM) inactive: -1.51; (compound concentration: 10 uM) inactive: -0.944.

For the molecule `CNCc1ccc(OC)c([C@]2(N3CCC[C@H]3c3ncco3)C(=O)N(S(=O)(=O)c3ccc(OC)cc3)c3ccc(Cl)cc32)c1`, the TEAD-luciferase reporter activity is active: 5.17 (compound concentration: 200 nM), inactive: -0.812 (compound concentration: 2 uM) and inactive: 1.2 (compound concentration: 10 uM).

Consider `CCCCNC1CCc2ncsc2C1` (stereo not drawn), for which the TEAD-luciferase reporter activity runs as follows: (compound concentration: 200 nM) inactive: 1.83; (compound concentration: 2 uM) inactive: -0.0768; (compound concentration: 10 uM) inactive: 0.864.

As to `CSc1ccc(OCc2ncc([N+](=O)[O-])n2C)cc1` [fexinidazole], the TEAD-luciferase reporter activity is, setting by setting: (compound concentration: 200 nM) inactive: -1.79; (compound concentration: 10 uM) inactive: 1.26.

Take `CCOC(=O)COc1cccc(CCc2nc(-c3ccccc3)c(-c3ccccc3)o2)c1`: the TEAD-luciferase reporter activity reads like this: (compound concentration: 200 nM) inactive: -0.0461; (compound concentration: 2 uM) inactive: 0.765; (compound concentration: 10 uM) inactive: 1.6.

On to `O=C(O)CCSC(SCCC(=O)O)c1ccccc1CCCCCCCCc1ccccc1`, for which the TEAD-luciferase reporter activity was inactive: -0.0668 (compound concentration: 200 nM), inactive: -0.226 (compound concentration: 2 uM) and inactive: -1.47 (compound concentration: 10 uM).

As for `CC(=O)OC[C@H]1O[C@@H](n2ncc(=O)[nH]c2=O)[C@H](OC(C)=O)[C@@H]1OC(C)=O`, the TEAD-luciferase reporter activity runs as follows: (compound concentration: 200 nM) inactive: 2.15; (compound concentration: 2 uM) inactive: -0.595; (compound concentration: 10 uM) inactive: -0.859.

Take `CC[C@H](C)[C@H](N)C(=O)N1CCC[C@H]1C(=O)N1CCC[C@H]1C(=O)O`: the TEAD-luciferase reporter activity runs as follows: (compound concentration: 200 nM) inactive: -2.14; (compound concentration: 2 uM) inactive: 1.98; (compound concentration: 10 uM) inactive: 3.1.

For the molecule `CN(CCOc1ccc(Cc2sc(O)nc2O)cc1)c1ccccn1` [rosiglitazone maleate], the TEAD-luciferase reporter activity is, setting by setting: (compound concentration: 200 nM) inactive: -0.241; (compound concentration: 2 uM) inactive: -2.07; (compound concentration: 10 uM) inactive: -0.305.

On to `Cc1ccc(CCN2CCCCC23Cc2ccccc2CN(C(=O)CCCC(=O)O)C3)cc1` (stereo not drawn), for which the TEAD-luciferase reporter activity reads like this: (compound concentration: 200 nM) inactive: 2; (compound concentration: 10 uM) inactive: 1.09.

For the molecule `CCCc1ncc(C[n+]2ccccc2C)c(N)n1`, the TEAD-luciferase reporter activity is inactive: 1.42 (compound concentration: 200 nM) and inactive: -0.607 (compound concentration: 10 uM).

In the case of `CCCc1ncc(C[n+]2ccccc2C)c(N)n1` [Amprolium], the TEAD-luciferase reporter activity (compound concentration: 2 uM) was inactive: -0.00481.

With `CC1CC[C@@]2(OC1)OC1CC3C4CC[C@H]5C[C@@H](OC6OC(CO)C(OC7OC(CO)C(O)C(O)C7O)C(O)C6O)CC[C@]5(C)C4C(=O)[C@@H](O)[C@]3(C)C1[C@@H]2C` (stereo partly drawn), the TEAD-luciferase reporter activity runs as follows: (compound concentration: 200 nM) inactive: 0.0551; (compound concentration: 2 uM) inactive: -0.432; (compound concentration: 10 uM) inactive: 2.01.

As to `CC1CC[C@@]2(OC1)O[C@H]1CC3[C@@H]4CC[C@H]5C[C@H](O[C@@H]6O[C@H](CO)[C@H](O[C@@H]7O[C@H](CO)[C@@H](O)[C@H](O)[C@H]7O)[C@H](O)[C@H]6O)CC[C@]5(C)C4CC[C@]3(C)[C@H]1[C@@H]2C` (stereo partly drawn) [Tiqueside], the TEAD-luciferase reporter activity is, setting by setting: (compound concentration: 200 nM) inactive: 0.133; (compound concentration: 2 uM) inactive: -0.957; (compound concentration: 10 uM) inactive: -0.761.
